Measurements as given in paper PMC8834516.
Results are given in words; binding and its absence hold for the method and conditions named. Binding seen in cells or lysates may run through a third protein. These calls come from enrichment with a bait or labelling near it, and not all partners need be listed.

T1: Transglutaminase-2 (mouse (endogenous in mouse brain)) (UniProt P21981)
T1 sequence: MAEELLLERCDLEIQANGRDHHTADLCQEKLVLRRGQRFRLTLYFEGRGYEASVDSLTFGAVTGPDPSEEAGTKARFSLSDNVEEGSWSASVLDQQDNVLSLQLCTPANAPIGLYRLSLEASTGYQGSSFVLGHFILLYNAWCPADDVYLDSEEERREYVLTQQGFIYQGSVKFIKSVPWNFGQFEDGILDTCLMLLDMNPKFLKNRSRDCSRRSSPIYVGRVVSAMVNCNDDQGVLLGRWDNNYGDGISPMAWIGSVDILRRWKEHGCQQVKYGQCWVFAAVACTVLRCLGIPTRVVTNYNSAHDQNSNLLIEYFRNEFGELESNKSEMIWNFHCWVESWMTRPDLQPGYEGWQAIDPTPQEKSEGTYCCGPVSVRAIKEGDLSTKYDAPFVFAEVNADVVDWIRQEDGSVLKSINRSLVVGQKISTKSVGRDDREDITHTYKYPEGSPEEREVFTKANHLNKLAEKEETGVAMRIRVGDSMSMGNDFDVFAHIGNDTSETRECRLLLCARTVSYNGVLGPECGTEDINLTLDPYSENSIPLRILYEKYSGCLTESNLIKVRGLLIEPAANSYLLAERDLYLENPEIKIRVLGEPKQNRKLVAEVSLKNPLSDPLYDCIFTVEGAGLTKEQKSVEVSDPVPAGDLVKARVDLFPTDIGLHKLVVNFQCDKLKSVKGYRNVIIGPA


Molecular target: T1, Transglutaminase-2 (mouse (endogenous in mouse brain))
Assay: affinity purification with mass spectrometry; TG2 immunoprecipitated from total brain homogenates of 18-month-old WT and APP23 mice with anti-TG2 antibody IA12 crosslinked to protein A/G magnetic beads, 22 h at 4 °C; IP lysis buffer 25 mM Tris pH 7.4, 150 mM NaCl, 1 mM EDTA, 1% NP40, 5% glycerol; on-bead trypsin digest, SWATH MS; TG2−/− cohorts as background, z-test p ≤ 0.05, n = 5 per cohort

Row | Binder | binding
1 | ATP-citrate synthase (protein, UniProt Q91V92 1-1091) MSAKAISEQTGKELLYKYICTTSAIQNRFKYARVTPDTDWAHLLQDHPWLLSQSLVVKPDQLIKRRGKLGLVGVNLSLDGVKSWLKPRLGHEATVGKAKGFLKNFLIEPFVPHSQAEEFYVCIYATREGDYVLFHHEGGVDVGDVDAKAQKLLVGVDEKLNTEDIKRHLLVHAPEDKKEVLASFISGLFNFYEDLYFTYLEINPLVVTKDGVYILDLAAKVDATADYICKVKWGDIEFPPPFGREAYPEEAYIADLDAKSGASLKLTLLNPKGRIWTMVAGGGASVVYSDTICDLGGVNELANYGEYSGAPSEQQTYDYAKTILSLMTREKHPEGKILIIGGSIANFTNVAATFKGIVRAIRDYQGPLKEHEVTIFVRRGGPNYQEGLRVMGEVGKTTGIPIHVFGTETHMTAIVGMALGHRPIPNQPPTAAHTANFLLNASGSTSTPAPSRTASFSESRADEVAPAKKAKPAMPQGKSATLFSRHTKAIVWGMQTRAVQGMLDFDYVCSRDEPSVAAMVYPFTGDHKQKFYWGHKEILIPVFKNMADAMKKHPEVDVLINFASLRSAYDSTMETMNYAQIRTIAIIAEGIPEALTRKLIKKADQKGVTIIGPATVGGIKPGCFKIGNTGGMLDNILASKLYRPGSVAYVSRSGGMSNELNNIISRTTDGVYEGVAIGGDRYPGSTFMDHVLRYQDTPGVKMIVVLGEIGGTEEYKICRGIKEGRLTKPVVCWCIGTCATMFSSEVQFGHAGACANQASETAVAKNQALKEAGVFVPRSFDELGEIIQSVYEDLVAKGAIVPAQEVPPPTVPMDYSWARELGLIRKPASFMTSICDERGQELIYAGMPITEVFKEEMGIGGVLGLLWFQRRLPKYSCQFIEMCLMVTADHGPAVSGAHNTIICARAGKDLVSSLTSGLLTIGDRFGGALDAAAKMFSKAFDSGIIPMEFVNKMKKEGKLIMGIGHRVKSINNPDMRVQILKDFVKQHFPATPLLDYALEVEKITTSKKPNLILNVDGFIGVAFVDMLRNCGSFTREEADEYVDIGALNGIFVLGRSMGFIGHYLDQKRLKQGLYRHPWDDISYVLPEHMSM | binds
2 | Alpha-soluble NSF attachment protein (protein, UniProt Q9DB05 1-295) MDNSGKQAEAMALLAEAERKVKNSQSFFSGLFGGSSKIEEACEIYARAANMFKMAKNWSAAGNAFCQAAQLHLQLQSKHDAATCFVDAGNAFKKADPQEAINCLMRAIEIYTDMGRFTIAAKHHISIAEIYETELVDVEKAIAHYEQSADYYKGEESNSSANKCLLKVAGYAAQLEQYQKAIDIYEQVGTSAMDSPLLKYSAKDYFFKAALCHFCIDMLNAKLAVQKYEELFPAFSDSRECKLMKKLLEAHEEQNVDSYTEAVKEYDSISRLDQWLTTMLLRIKKTIQGDEEDLR | binds
3 | ATP synthase-coupling factor 6, mitochondrial (protein, UniProt P97450 33-108) NKELDPVQKLFVDKIREYKSKRQASGGPVDIGPEYQQDLDRELYKLKQMYGKGEMDTFPTFKFDDPKFEVIDKPQS | binds
4 | Protein SOGA3 (protein, UniProt Q6NZL0 26-945) RMHPEGCSRKQQRAQSPARPRDNSLRQTAGATRSPLGVGPKLNSVRQQQLQQQQQQGNKITGRSTSGTGSRGLGGGAEKAVPSIPKGAVPGAVQPAPGAEGSPAAILASVSFRRSGQPEEAPREIESGPSKVGEPPPLGGVGGGGEGGGAGGGPGDREGGAPQPPPPRGWRGKGVRATQRGSSVAEGVSPSPPTAATSKTPGPGSRNSGSGSTGSGSGGGGSYWKEGCLQSELIQFHLKKERAAAAAAAAQMHTKNGGGGSRSSPVAGAPAICEPLVVPSSSPMAAAAEGPQQSAEGNGSGGAMQAAAPPSSQPHSQQLQEQEDMQEEMEKLREENETLKNEIDELRTEMDEMRDTFFEEDACQLQEMRHELERANKNCRILQYRLRKAERKRLRYAQTGEIDGELLRSLEQDLKVAKDVSVRLHHELENVEEKRTTTEDENEKLRQQLIEVEIAKQALQNELEKMKELSLKRRGSKDLPKSEKKAQQTPTEDDNEDLKCQLQFVKEEAALMRKKMAKIDKEKDRFEHELQKYRSFYGDLDSPLPKGEAGGPPSTREAELKLRLRLVEEEANILGRKIVELEVENRGLKAELDDLRGEDFNGSSNPLMREQSESLSELRQHLQLVEDETELLRRNVADLEEQNKRITAELNKYKYKSSGHDSSRHHDNAKTEALQEELKAARLQINELSGKVMQLQYENRVLMSNMQRYDLASHLGIRGSPRDSDAESDAGKKESDDDSRPPHRKREGPIGGESDSEEVRNIRSLTPTRSFYPTPGPWPKSFSDRQQMKDIRSEAERLGKTIDRLIADTSTIITEARIYVANGDLFGLMDEEDDGSRIREHELLYRINAQMKAFRKELQTFIDRLEVPKSADDRGAEEPISVSQMFQPIILLILILVLFSSLSYTTIFKLVFLFTLFFVL | binds
5 | Ly-6/neurotoxin-like protein 1 (protein, UniProt P0DP60 21-92) LECHVCAYNGDNCFKPMRCPAMATYCMTTRTYFTPYRMKVRKSCVPSCFETVYDGYSKHASATSCCQYYLCN | binds
6 | Phospholipase A-2-activating protein (protein, UniProt P27612 1-794) MASGASRYRLSCSLPGHELDVRGLVCCLYPPGAFVSVSRDRTTRLWAPDSPNRGFTEMHCMSGHSNFVSCVCIIPSSDIYPHGLIATGGNDHNICIFSLDSPMPLYILKGHKDTVCSLSSGKFGTLLSGSWDTTAKVWLNDKCMMTLQGHTAAVWAVKILPEQGLMLTGSADKTIKLWKAGRCERTFLGHEDCVRGLAILSETEFLSCANDASIRRWQITGECLEVYFGHTNYIYSISVFPNSKDFVTTAEDRSLRIWKHGECAQTIRLPAQSIWCCCVLENGDIVVGASDGIIRVFTESEERTASAEEIKAFERELSQATIDSKTGDLGDINAEQLPGREHLSEPGTREGQTRLIRDGERVEAYQWSVSDGRWIKIGDVVGSSGANQQTSGKVLYEGKEFDYVFSIDVNEGGPSYKLPYNVSDDPWLVAYNFLQKNDLNPMFLDQVAKFIIDNTKGQTLGLGNTSFSDPFTGGGRYVPGTSGPSNTVQTADPFTGAGRYMPGSAGMDTTMTGVDPFTGNSAYRSAASKTVNIYFPKKEALTFDQANPTQILGKLKELNGTAPEEKKLTEDDLVLLEKILSLICNNSSEKPTAQQLQILWKAINWPEDIVFPALDILRLSIKHPNVNENFCNEKGDQFSSHLINLLNPKGKPANQLLALRTFCNCFVSQAGQKLMMSQRESLMSHAIELKSGSNKNIHIALATLTLNYSVCFHKDHNIEGKAQCLSVISTILEVVQDLEATFRLLVALGTLISDDSNAIQLAKSLGVDSQIKKYVSVSEPAKVSECCRLVLHLL | binds
7 | Apolipoprotein E (protein, UniProt P08226 19-311) EGEPEVTDQLEWQSNQPWEQALNRFWDYLRWVQTLSDQVQEELQSSQVTQELTALMEDTMTEVKAYKKELEEQLGPVAEETRARLGKEVQAAQARLGADMEDLRNRLGQYRNEVHTMLGQSTEEIRARLSTHLRKMRKRLMRDAEDLQKRLAVYKAGAREGAERGVSAIRERLGPLVEQGRQRTANLGAGAAQPLRDRAQAFGDRIRGRLEEVGNQARDRLEEVREHMEEVRSKMEEQTQQIRLQAEIFQARLKGWFEPIVEDMHRQWANLMEKIQASVATNPIITPVAQENQ | binds
8 | Ras and Rab interactor 1 (protein, UniProt Q921Q7 1-763) MEDPGETGAHPLGATNLNFVPGHQQKEKPSTDPLYDTPDTRGVQAGGSQQPARTVSLRERLLITRPVWLQLRANAAAALHVLRTEPPGTFLVRKSNTRQCQALCVRLPEASGPSFVSSHYIEESTGGVSLEGSELMFQDLVQLICGYCRTRAIHQAATHKELEAISHLGMEFWSSSLNTKDQQRPSEAPPIPRLKARSPQELDQGTGAALCFFNPLFPGDLGPTKREKFKRSFKVRVSTETSSPLSPPAVPPPPVPVLPGTSSSQTERLPPRQLLQRESSVGYRVPGSAASPCLPPLPSLQEVDCCSPSSSEEEGSSGSPTTSPRLSRPRHRRPLLRSMSSAFCSLLAPERQVGRAATMLMQNRYTAVGQLVQDLLTQVRAGPEPRELQGIRQALSRARAMLSAELGPEKLLPPERLELVLEKSLHRSVLKPLRPILAARLRRRLSADGSLGRLAEGFRLARTQGPGAFGSHLTLSSPVETEQVRQKLLQLLRAYSPSAQVKWLLQACKLLYTALKSQAGENAGADEFLPLLSLVLAQCDLPDLLLEAEYMSELLEPTLLTGEGGYYLTSLSASLALLSGLSQARALPLSPAQELQRSLALWEQRRLPATHSFQHLLRVAYQDPSTGCTSKTLAVPPGSSIATLSQLCATKFRVTQPDAFGLFLYKDQGYHRLPPEALAHRLPATGYLIYRRAERPETQGAVAEKAKTGSKGPEAGAWEEETGGLNREGKPRIAVDQEGKDQARGGHIGPEEQKAEGSQALEE | binds
9 | Alpha-crystallin B chain (protein, UniProt P23927 1-175) MDIAIHHPWIRRPFFPFHSPSRLFDQFFGEHLLESDLFSTATSLSPFYLRPPSFLRAPSWIDTGLSEMRLEKDRFSVNLDVKHFSPEELKVKVLGDVIEVHGKHEERQDEHGFISREFHRKYRIPADVDPLTITSSLSSDGVLTVNGPRKQVSGPERTIPITREEKPAVAAAPKK | binds
10 | LanC-like protein 2 (protein, UniProt Q9JJK2 1-450) MGETMSKRLKFHLGEAEMEERSFPNPFPDYEAAASAAGLAAGSAEETGRVCPLPTTEDPGLPFHPNGKIVPNFIKRIQTKIKDLLQQMEEGLKTADPHDCSAYTGWTGIALLYLQLYRVTGDQTYLLRSLDYVKRTLRNLSGRRVTFLCGDAGPLAVGAVIYHKLKSECESQECITKLLQMHRTIVCQESELPDELLYGRAGYLYALLYLNTEIGPGTVGETAIKEVVSAIIESGKSLSREERKSERCPLLYQWHRKQYVGAAHGMAGIYYMLMQPEAKVDQETLTEMVKPSIDYVRHKKFRSGNYPSSLSNETDRLVHWCHGAPGVIHVLLQAYQVFKEEKYLKEAMECSDVIWQRGLLRKGYGICHGTSGNGYSFLSLYRLTQDKKYLYRACKFAEWCLDYGAHGCRIPDRPYSLFEGMAGAVHFLSDILVPETARFPAFELGFLQKD | binds
